Measured values from article PMC8504577, “Evaluation of a Clinically Relevant Drug–Drug Interaction Between Rosuvastatin and Clopidogrel and the Risk of Hepatotoxicity” (Frontiers in Pharmacology, 2021).
pIC50: −log10 of the molar value. Entries after “also recorded” stand apart in the source; their conditions may differ. Where two headings read alike, the source gives them in different places.

Legend:
OATP1B1 [1] = target: T1, OATP1B1 (Homo sapiens, UniProt Q9Y6L6)
T1 sequence (Q9Y6L6 1-691): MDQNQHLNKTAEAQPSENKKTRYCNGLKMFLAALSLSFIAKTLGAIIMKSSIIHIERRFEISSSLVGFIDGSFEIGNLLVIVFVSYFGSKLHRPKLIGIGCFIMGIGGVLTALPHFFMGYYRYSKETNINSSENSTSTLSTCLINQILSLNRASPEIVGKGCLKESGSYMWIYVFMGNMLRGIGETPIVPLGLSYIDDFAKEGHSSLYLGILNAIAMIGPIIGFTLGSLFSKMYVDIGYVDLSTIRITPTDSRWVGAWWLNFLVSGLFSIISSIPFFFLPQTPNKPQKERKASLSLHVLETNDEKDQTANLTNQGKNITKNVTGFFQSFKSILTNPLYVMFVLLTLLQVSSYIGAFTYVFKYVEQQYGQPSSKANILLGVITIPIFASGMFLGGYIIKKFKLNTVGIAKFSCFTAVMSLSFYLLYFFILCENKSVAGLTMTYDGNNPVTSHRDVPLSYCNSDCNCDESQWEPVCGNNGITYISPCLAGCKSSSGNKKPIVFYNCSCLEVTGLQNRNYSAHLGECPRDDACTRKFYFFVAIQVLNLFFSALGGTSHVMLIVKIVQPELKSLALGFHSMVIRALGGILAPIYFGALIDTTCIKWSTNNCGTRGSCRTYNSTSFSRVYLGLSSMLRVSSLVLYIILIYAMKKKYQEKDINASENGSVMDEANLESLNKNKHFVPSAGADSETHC
Procedure: (§1) The OATP1B1, OATP1B3, and mock cells were cultured in the DMEM medium containing 10% fetal bovine serum, penicillin–streptomycin solution (100 U/mL and 0.1 mg/ml), and 0.5 mg/ml geneticin at 37°C in the presence of 5% CO2. The cells were seeded in a 24-well plate at a density of 4×10^5 cells/well and grown for 80–90% confluence. […] After washing the cells three times with transporter buffer at 4°C, the cells were lysed with liquid nitrogen. The lysates were precipitated with methanol and centrifuged at 12,000 rpm at 4°C for 5 min. The supernatant was analyzed by LC-MS/MS. Protein concentration was determined using the Pierce® BCA Protein Assay Kit. All experiments were performed in triplicate.
(§2) Phoenix WinNonlin® 7.1 (Pharsight Corporation, Mountain View, CA, United States) was used to calculate the pharmacokinetic parameters by the noncompartmental method. IC50 values were obtained by a computer-generated nonlinear least squares fit using GraphPad Prism 8.1 (GraphPad Software, San Diego, CA, United States). Statistical analysis was performed using SPSS ver. 22.0 (IBM, Chicago, IL, United States). The results are presented as mean ± S.D., unless otherwise stated. After testing for the homogeneity of variance, statistical analysis was performed with a one-way ANOVA followed by the LSD post hoc test or unpaired Student’s t-test. A probability (p) of less than 0.05, 0.01, and 0.001 was considered to be statistically significant, highly significant, and extremely significant, respectively.

OATP1B3 = target: T2, OATP1B3 (Homo sapiens, UniProt Q9NPD5)
T2 sequence (Q9NPD5 1-702): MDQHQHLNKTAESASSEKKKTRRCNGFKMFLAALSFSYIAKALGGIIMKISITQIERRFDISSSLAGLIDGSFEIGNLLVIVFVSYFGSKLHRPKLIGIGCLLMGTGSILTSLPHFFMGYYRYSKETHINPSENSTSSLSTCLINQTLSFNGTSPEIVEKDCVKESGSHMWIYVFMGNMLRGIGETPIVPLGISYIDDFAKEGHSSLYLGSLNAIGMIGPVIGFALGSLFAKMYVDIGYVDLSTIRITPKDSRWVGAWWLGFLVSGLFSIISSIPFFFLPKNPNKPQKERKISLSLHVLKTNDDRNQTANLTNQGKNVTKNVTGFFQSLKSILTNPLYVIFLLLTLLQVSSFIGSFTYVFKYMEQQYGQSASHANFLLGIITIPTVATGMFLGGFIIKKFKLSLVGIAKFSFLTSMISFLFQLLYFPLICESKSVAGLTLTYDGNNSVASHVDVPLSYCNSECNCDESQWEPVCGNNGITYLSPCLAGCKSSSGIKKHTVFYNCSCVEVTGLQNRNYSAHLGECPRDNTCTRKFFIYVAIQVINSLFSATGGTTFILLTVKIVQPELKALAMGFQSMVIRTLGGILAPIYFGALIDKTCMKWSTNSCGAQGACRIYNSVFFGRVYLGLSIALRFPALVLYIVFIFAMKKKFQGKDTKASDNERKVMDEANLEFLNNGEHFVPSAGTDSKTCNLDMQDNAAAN
Procedure: as §1, §2

[2] = test system: human primary hepatocytes
Procedure: Cytotoxicity was determined with MTT assay in cryopreserved human hepatocytes. Thawing and plating of cryopreserved hepatocytes were carried out according to the manufacturer’s protocol. Primary human hepatocytes at a density of 7×10^4 cells/well were cultured for 24 h after plating in 96-well collagen-coated plates. Then, the hepatocytes were treated with varying concentrations of RSV, CP, RSV plus CP, or tamoxifen and incubated for 24 or 96 h at 37°C. 11 μL of 5 mg/ml MTT was added to each well of the plate, and then the plate was incubated at 37°C for 3–4 h. After the medium was aspirated, 150 μL of DMSO was added to dissolve the formazan. The absorbance at 570 nm was measured and corrected for background absorption at 690 nm using a SpectraMax® i3 plate reader (Molecular Devices, Silicon Valley, CA, United States). AST and LDH levels in the medium of parallel processed plates were measured by commercially available assay kits. […] All experiments were performed in triplicate.
A Shimadzu LC-20AD liquid chromatography system (Shimadzu, Kyoto, Japan) and an API5000 triple quadrupole tandem mass spectrometer (Applied Biosystems/Sciex, Framingham, MA, United States) coupled with an electrospray ionization (ESI) source was used for the determination of in vitro samples. Chromatographic separation was conducted with gradient elution on a Synergi Hydro-RP column (30 × 2.0 mm, 4 μm, Phenomenex, Torrance, CA, United States). […] The mobile phase consisted of methanol (A) and water (B), both containing 0.1% (V/V) formic acid. The flow rate was 0.5 ml/min and the gradient elution was run using the following program: 0.01 min (15% A)-1.0 min (95% A), 1.5 min (95% A)-1.51 min (15% A), 2.5 min (stop).

[3] = Plasma pharmacokinetic study in rats; conditions: estimated with human unbound fraction 0.06
Procedure: For the plasma pharmacokinetic study, 16 rats were randomly assigned into four groups (n = 4, each group, groups I to IV) and received oral (p.o.) administrations as oral gavage of CP (27 mg/kg) or the same volume of vehicle control for 20 days. Then, the rats were made to fast overnight before dosing but with free access to water. On day 21, rats in group I were treated with a p.o. dose as oral gavage of CP at 27 mg/kg and a single intravenous (i.v.) dose of RSV at 5 mg/kg. Rats in group II were treated with a p.o. dose as oral gavage of vehicle control and a single i.v. dose of RSV at 5 mg/kg. Rats in group Ⅲ were treated with a p.o. dose as oral gavage of CP at 27 mg/kg and a p.o. dose as oral gavage of RSV at 5 mg/kg. Rats in group Ⅳ were treated with a p.o. dose as oral gavage of vehicle control and a p.o. dose as oral gavage of RSV at 5 mg/kg. Blood samples (0.15 ml) were collected at 0, 1, 2, 5, 15, 30, 60, 120, 180, 360, 480, 600, and 720 min after administration of the i.v. dose of the RSV group and at 0, 5, 30, 60, 120, 180, 360, 480, 600, and 720 min for the p.o. dose as oral gavage of the RSV group. After each sampling, a volume of 0.15 ml physiologic saline solutions was administered to sustain isotonic fluid balance. Plasma samples were harvested by using a centrifuge and then stored at −80°C until analysis by LC-MS/MS. […]

[4] = fu×I1
OATP1B1 [5] = conditions: ref Tamraz et al. (2013), cited from earlier work
[6] = ref Itkonen et al. (2015), cited from earlier work
BCRP = target: T3, BCRP (Homo sapiens, UniProt Q9UNQ0); test: Inhibition of RSV transport in BCRP-expressing membrane vesicles; type: biochemical; parameters: purchased GenoMembrane Co., Ltd. (Yokohama, Japan) GM0008; host or cells: Sf9 insect cells; conditions: 1 μM RSV, read-out: IC50 BCRP-mediated RSV transport
T3 sequence (Q9UNQ0 1-655): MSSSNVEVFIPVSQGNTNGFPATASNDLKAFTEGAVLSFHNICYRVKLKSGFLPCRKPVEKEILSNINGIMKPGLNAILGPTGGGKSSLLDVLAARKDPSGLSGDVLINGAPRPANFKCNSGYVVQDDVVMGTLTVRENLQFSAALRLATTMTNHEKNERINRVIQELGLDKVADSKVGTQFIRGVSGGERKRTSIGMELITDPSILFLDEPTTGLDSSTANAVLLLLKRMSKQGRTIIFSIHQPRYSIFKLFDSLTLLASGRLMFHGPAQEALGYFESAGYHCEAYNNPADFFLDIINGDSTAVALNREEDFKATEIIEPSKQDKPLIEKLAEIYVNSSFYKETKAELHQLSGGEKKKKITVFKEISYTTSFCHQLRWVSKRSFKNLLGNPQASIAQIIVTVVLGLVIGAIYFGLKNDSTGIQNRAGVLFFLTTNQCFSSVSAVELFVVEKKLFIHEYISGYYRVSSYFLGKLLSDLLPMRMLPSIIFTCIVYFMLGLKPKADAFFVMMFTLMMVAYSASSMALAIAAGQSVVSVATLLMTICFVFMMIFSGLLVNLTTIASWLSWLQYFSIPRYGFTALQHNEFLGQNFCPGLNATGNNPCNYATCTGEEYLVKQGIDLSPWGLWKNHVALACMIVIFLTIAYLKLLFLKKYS
Procedure: The vesicular transport activity was determined by the 96-well rapid filtration method in BCRP- and MRP2-expressing membrane vesicles. […] Meanwhile, 5 μL RSV (final concentration, 1 μM) and 20 μL reagent C2 were pre-incubated at 37°C for 5 min. Then, the transport was initiated by mixing them in a 50 μL reaction system and incubated for the designated time at 37°C. The transport was terminated by adding 200 μL of cold buffer B2 at 4°C. Then, the mixture was filtered using a 96-well filter plate. After washing the vesicles five times with 200 μL of cold buffer B2 at 4°C, the vesicles were lysed with 50 μL of 80% […] twice and then centrifuged at 2000 rpm/min for 2 min. Lysates were collected and then centrifuged at 12,000 rpm/min for 5 min. The supernatants were injected onto the LC-MS/MS. The same procedures were applied to AMP-containing samples except that reagent D2 was used instead of reagent C2. All experiments were performed in quadruplicate.
Statistical analysis was performed using SPSS ver. 22.0 (IBM, Chicago, IL, United States).

[7] = estimated assuming same unbound fraction as plasma

## O=C(O)[C@H](c1ccccc1Cl)N1CCc2sccc2C1 [CPC, clopidogrel carboxylic acid]
OATP1B1 [1]; 1 μM RSV, 0.05–50 μM
  Inhibition of OATP1B1-mediated RSV transport: did not inhibit; also recorded: had no effects
OATP1B1 [1]; read-out: IC50 OATP1B1-mediated transport of RSV, 1 μM RSV as substrate, HEK293 cells
  pIC50: < 4.30
OATP1B3; 1 μM RSV, CPC 0.05–50 μM
  Inhibition of OATP1B3-mediated RSV transport: did not inhibit; also recorded: had no effects
OATP1B3; read-out: IC50 OTAP1B3, RSV as substrate
  pIC50: < 4.30
[2]; RSV plus 100 μM CP
  Concentrations in cells and mediums: remained high
[2]; [7]
  Free medium concentration: 0.79 to 1.31 µM
  Unbound intracellular concentration: 7.42 to 9.11 µM
[3]; group I
  Unbound plasma concentration: 3.74 µM
[3]; group III
  Unbound plasma concentration: 5.05 µM
[4]; 75 mg CP
  Imax,u, unbound steady-state plasma peak concentration: 0.443 µM
[4]; 300 mg CP
  Imax,u, unbound steady-state plasma peak concentration: 1.914 µM
OATP1B1 [5]; substrate cerivastatin, read-out: IC50 OTAP1B1 (cerivastatin, CER, as substrate)
  pIC50: < 4.00
OATP1B1 [5]; substrate estrone sulfate, read-out: IC50 OTAP1B1 (estrone sulfate, ES, as substrate)
  pIC50: < 4.00
[6]; 75 mg CP
  I1, peak plasma concentration at steady state: 7.38 [Itkonen et al. (2015)] μM
[6]; 300 mg CP
  I1, peak plasma concentration at steady state: 31.90 [Itkonen et al. (2015)] μM
BCRP
  pIC50: 5.22
